Laboratory results: article PMC7251106
Results are given in words; binding and its absence hold for the method and conditions named. Binding seen in cells or lysates may run through a third protein. A yes stands for co-enrichment or nearness to the bait. Other partners may have been found.

Chains of the proteins cited; added tags and fusions are not shown.
UniProt Q07065: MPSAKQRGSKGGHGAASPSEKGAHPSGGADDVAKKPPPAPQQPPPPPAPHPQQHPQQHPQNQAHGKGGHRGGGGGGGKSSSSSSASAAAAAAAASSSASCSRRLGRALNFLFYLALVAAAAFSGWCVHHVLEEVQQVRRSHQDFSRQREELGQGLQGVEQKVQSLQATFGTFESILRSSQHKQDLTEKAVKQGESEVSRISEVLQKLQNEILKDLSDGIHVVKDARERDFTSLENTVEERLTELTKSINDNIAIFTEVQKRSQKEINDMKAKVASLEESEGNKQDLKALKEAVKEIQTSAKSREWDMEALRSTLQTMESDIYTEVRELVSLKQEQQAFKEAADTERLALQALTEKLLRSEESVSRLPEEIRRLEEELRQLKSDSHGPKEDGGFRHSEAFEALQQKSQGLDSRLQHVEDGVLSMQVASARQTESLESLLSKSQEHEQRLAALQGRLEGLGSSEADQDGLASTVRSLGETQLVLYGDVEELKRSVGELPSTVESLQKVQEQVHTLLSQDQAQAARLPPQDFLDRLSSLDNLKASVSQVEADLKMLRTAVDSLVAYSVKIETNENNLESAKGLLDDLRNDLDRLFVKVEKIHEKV
UniProt P48681: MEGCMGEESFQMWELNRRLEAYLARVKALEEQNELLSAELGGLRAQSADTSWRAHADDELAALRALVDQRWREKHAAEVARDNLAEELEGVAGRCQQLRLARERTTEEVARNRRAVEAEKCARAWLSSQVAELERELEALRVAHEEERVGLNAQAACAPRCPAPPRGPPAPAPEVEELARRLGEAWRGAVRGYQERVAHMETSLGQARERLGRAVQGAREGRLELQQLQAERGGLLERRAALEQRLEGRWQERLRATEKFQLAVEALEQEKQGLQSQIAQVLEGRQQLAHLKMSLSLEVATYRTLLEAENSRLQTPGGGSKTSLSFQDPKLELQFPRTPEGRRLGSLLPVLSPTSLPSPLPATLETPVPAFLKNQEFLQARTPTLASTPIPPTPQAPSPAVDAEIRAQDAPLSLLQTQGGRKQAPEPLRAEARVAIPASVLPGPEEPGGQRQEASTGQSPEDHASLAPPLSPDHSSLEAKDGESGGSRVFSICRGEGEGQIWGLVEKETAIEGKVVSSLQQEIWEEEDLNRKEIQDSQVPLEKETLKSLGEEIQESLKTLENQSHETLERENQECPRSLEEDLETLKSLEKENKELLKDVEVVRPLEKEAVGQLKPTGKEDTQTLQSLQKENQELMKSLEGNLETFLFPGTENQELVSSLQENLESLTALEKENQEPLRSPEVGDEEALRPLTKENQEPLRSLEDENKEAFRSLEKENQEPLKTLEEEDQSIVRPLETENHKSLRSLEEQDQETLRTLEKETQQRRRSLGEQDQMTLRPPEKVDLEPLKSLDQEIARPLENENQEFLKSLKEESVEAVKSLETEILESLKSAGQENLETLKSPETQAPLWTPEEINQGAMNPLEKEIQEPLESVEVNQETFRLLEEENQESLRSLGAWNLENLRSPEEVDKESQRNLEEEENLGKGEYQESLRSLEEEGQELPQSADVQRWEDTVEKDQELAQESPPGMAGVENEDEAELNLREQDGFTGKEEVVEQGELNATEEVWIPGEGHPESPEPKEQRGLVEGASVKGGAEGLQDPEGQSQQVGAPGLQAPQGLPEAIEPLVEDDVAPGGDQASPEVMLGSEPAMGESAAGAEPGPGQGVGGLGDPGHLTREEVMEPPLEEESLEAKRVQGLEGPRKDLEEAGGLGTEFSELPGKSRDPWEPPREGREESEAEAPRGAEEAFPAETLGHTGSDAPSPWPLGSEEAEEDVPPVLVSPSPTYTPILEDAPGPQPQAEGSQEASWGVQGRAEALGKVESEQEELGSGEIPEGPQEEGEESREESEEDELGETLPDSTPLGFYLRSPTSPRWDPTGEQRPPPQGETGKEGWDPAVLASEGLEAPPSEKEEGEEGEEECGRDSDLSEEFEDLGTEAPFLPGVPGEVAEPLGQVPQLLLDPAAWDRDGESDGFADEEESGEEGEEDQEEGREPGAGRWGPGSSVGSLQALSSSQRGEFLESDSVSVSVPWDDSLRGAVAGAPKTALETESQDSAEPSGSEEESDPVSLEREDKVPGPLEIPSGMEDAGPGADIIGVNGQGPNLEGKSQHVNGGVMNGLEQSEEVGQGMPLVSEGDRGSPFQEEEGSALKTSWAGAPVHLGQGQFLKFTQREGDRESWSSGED

Biological target: T1, Vascular endothelial (VE)-cadherin (human (endogenous in HUVEC)) (UniProt P33151)
T1 sequence: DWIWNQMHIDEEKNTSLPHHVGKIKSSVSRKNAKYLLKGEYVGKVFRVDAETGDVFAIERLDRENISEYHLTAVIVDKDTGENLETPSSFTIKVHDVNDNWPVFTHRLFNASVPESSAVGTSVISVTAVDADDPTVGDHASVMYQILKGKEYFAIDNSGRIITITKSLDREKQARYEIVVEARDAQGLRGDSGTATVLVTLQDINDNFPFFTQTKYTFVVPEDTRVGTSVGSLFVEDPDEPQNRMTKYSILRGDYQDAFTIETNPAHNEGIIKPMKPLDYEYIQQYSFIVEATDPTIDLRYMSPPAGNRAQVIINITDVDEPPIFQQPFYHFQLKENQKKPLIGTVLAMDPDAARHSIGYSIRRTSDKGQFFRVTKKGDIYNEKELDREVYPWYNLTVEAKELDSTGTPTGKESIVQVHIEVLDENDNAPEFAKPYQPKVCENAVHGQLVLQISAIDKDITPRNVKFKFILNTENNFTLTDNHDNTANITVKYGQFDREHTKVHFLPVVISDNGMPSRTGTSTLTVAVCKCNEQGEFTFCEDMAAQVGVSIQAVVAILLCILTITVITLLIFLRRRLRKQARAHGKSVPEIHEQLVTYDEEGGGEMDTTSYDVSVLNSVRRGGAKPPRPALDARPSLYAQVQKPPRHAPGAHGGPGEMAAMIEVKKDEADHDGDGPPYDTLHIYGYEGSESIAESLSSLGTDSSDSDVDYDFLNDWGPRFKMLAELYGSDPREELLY
Test: affinity purification with mass spectrometry; 0.7 mg HUVEC lysate (si ctr or si LASSIE, 48 h post transfection) with anti-VE-cadherin antibody and Dynabeads protein G, 1.5 h at 4 °C; 25 mM Tris-HCl pH 7.5, 100 mM NaCl, 10 mM MgCl2, 1 mM EDTA, 10% glycerol, 1% NP-40; beads analysed by MS

| Substance | binding |
| --- | --- |
| CKAP4 (from UniProt Q07065 1-602) | binds |
| nestin (from UniProt P48681 1-1621) | binds |
